We go through one molecule from EP4834897A1, “COMPOUNDS WITH TWO AZAHETEROCYCLES SUBSTITUTED ISOINDOLINONE SKELETON AND USES THEREOF” (dated 2026).

In this assay the test system is Human multiple myeloma cell (MM.1S). The assay can be described thus: Tumor cell proliferation inhibition (cell viability assay). Particulars: read-out: Inhibitory activity against tumor cells proliferation (IC50, nM) MM.1S; MM.1S cells; 96 hours.

Molecules are shown by their SMILES. Certain results were filed several times, with different values. Only these are listed. The source may hold further records. The records of an entry appear to be repeats on other runs, samples or individuals.

Regarding `Nc1cccc2c1CN(C1CCC(=O)NC1=O)C2=O` (stereo not shown), the IC50 was 1 µM to 5 µM and 200 nM to 500 nM.
